Measured values published in US20040166544A1.
Results are given in words; binding and its absence hold for the method and conditions named. Some binding calls cover weakened binding; strength is not graded here.

Molecular target: c-Met/Fc Chimera (R&D Systems, catalog # 358-MT-100) (human) (UniProt P08581)
Assay: europium (DELFIA) ligand competition ELISA: biotinylated HGF binding to plate-coated c-Met/Fc Chimera, Fab titrated

binding: binds
B1: c-Met 12123 Fab (Fab, V domains shown)
VH: QVQLQESGPGLVKPSATLSLTCAVSGGSISSNHWWSWVRQSPGKGLEWIGEIYTYGGANYNPSLKSRVDISMDKSKNQFSLHLSSVTAADTAVYYCGRHLTGYDCFDIWGQGTLVTVSS
VL: QAVLTQPSSVSGAPGQRVTISCTGSSSNIGAGYDVHWYQQLPGTAPKLLIYGNSNRPSGVPDRFSGSKSGTSASLAITGLQAEDEADYYCQSYDSSLSGVFGTGTQLTVLS
